These are yes or no findings as the source states them, for the method shown. Some results given as binding are weak or reduced against the parent protein; the word gives no strength.
Assays:
[1] = biological target: wild type PDGFRβ with C-terminal flag-tag, expressed in PDGFRα/β-deficient MEFs (UniProt P09619); test: PDGF-induced receptor dimers on cells, DSS crosslinking, IP, SDS-PAGE, anti-flag immunoblot
[2] = biological target: wild type PDGFRβ with C-terminal flag-tag, expressed in PDGFRα/β-deficient MEFs (UniProt P09619); test: PDGF-induced receptor dimerization on MEFs, DSS crosslinking, IP anti-PDGFR, SDS-PAGE, IB anti-flag
[3] = biological target: wild type PDGFRβ with C-terminal flag-tag, expressed in PDGFRα/β-deficient MEFs (UniProt P09619); test: PDGF-induced receptor dimers on cells, covalent crosslinking (FIG. 16C)
[4] = biological target: wild type PDGFRβ with C-terminal flag-tag, expressed in PDGFRα/β-deficient MEFs (UniProt P09619); test: PDGF-induced receptor dimerization on MEFs, DSS crosslinking, IP anti-PDGFR, SDS-PAGE, IB anti-flag (left panel per paragraph 60)
[5] = biological target: PDGFRβ E390A mutant with C-terminal flag-tag, expressed in MEFs (UniProt P09619); test: PDGF-induced receptor dimers on cells, DSS crosslinking, IP, SDS-PAGE, anti-flag immunoblot
[6] = biological target: PDGFRβ E390A mutant with C-terminal flag-tag, expressed in MEFs (UniProt P09619); test: PDGF-induced receptor dimerization on MEFs, DSS crosslinking, IP anti-PDGFR, SDS-PAGE, IB anti-flag
[7] = biological target: PDGFRβ E390A mutant with C-terminal flag-tag, expressed in MEFs (UniProt P09619); test: PDGF-induced receptor dimers on cells, crosslinking, IP, anti-flag and antiphosphotyrosine immunoblots
[8] = biological target: PDGFRβ E390A mutant with C-terminal flag-tag, expressed in MEFs (UniProt P09619); test: PDGF-induced receptor dimers on cells, covalent crosslinking (FIG. 16C)
[9] = biological target: PDGFRβ E390A mutant with C-terminal flag-tag, expressed in MEFs (UniProt P09619); test: PDGF-induced receptor dimers on cells, DSS crosslinking, IP, anti-flag immunoblot
[10] = biological target: PDGFRβ E390A mutant with C-terminal flag-tag, expressed in MEFs (UniProt P09619); test: PDGF-induced receptor dimerization on MEFs, DSS crosslinking, IP anti-PDGFR, SDS-PAGE, IB anti-flag (left panel per paragraph 60)

Measured: binding

wild type PDGFRβ with C-terminal flag-tag, expressed in PDGFRα/β-deficient MEFs (from UniProt P09619 33-1106) (receptor)
binds: [1] | [2] | [3] | [4]

PDGFRβ E390A mutant with C-terminal flag-tag, expressed in MEFs (from UniProt P09619 33-1106) (receptor)
binds: [5] | [6] | [7] | [8] | [9] | [10]
